# Experimental data: the supplement of paper PMC8728848
# The other results are listed elsewhere or left out.
# Tests used:
# Experiment in all cases: glycan array binding signal (z-score within array); higher = stronger binding
# Settings in all cases: glycan notation: IUPAC condensed, linker removed
# [1] = biological target: GlcNAc(b1-2)Gal(b1-3)GalNAc
# Method in brief: (§1)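 The Consortium for Functional Glycomics database supplied 3228 glycan arrays, of which those lacking an available protein sequence were dropped. The binding signal, a within-array Z-score, was averaged across arrays of the same protein sequence and across linkers. Negative scores can be read as non-binding.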
# [2] = biological target: GlcNAc(b1-2)Man(a1-3)[GlcNAc(b1-2)Man(a1-6)]Man(b1-4)GlcNAc(b1-4)GlcNAc
# Method in brief: as §1
# [3] = biological target: GlcNAc(b1-2)Man(a1-3)[GlcNAc(b1-2)Man(a1-6)]Man(b1-4)GlcNAc(b1-4)[Fuc(a1-6)]GlcNAc
# Method in brief: as §1
# [4] = biological target: GlcNAc(b1-2)Man(a1-3)[GlcNAc(b1-4)][GlcNAc(b1-2)Man(a1-6)]Man(b1-4)GlcNAc(b1-4)GlcNAc
# Method in brief: as §1
# [5] = biological target: GlcNAc(b1-2)Man(a1-3)[GlcNAc(b1-4)][GlcNAc(b1-2)Man(a1-6)]Man(b1-4)GlcNAc(b1-4)[Fuc(a1-6)]GlcNAc
# Method in brief: as §1
# [6] = biological target: GlcNAc(b1-2)[GlcNAc(b1-4)]Man(a1-3)[GlcNAc(b1-2)Man(a1-6)]Man(b1-4)GlcNAc(b1-4)GlcNAc
# Method in brief: as §1
# [7] = biological target: GlcNAc(b1-2)[GlcNAc(b1-4)]Man(a1-3)[GlcNAc(b1-4)][GlcNAc(b1-2)Man(a1-6)]Man(b1-4)GlcNAc(b1-4)GlcNAc
# Method in brief: as §1
# [8] = biological target: GlcNAc(b1-2)[GlcNAc(b1-4)]Man(a1-3)[GlcNAc(b1-4)][GlcNAc(b1-2)[GlcNAc(b1-6)]Man(a1-6)]Man(b1-4)GlcNAc(b1-4)GlcNAc
# Method in brief: as §1
# [9] = biological target: GlcNAc(b1-2)[GlcNAc(b1-4)]Man(a1-3)[GlcNAc(b1-4)][GlcNAc(b1-2)[GlcNAc(b1-6)]Man(a1-6)]Man(b1-4)GlcNAc(b1-4)[Fuc(a1-6)]GlcNAc
# Method in brief: as §1
# [10] = biological target: GlcNAc(b1-2)[GlcNAc(b1-6)]Man(a1-6)[GlcNAc(b1-2)Man(a1-3)]Man(b1-4)GlcNAc(b1-4)GlcNAc
# Method in brief: as §1
# [11] = biological target: GlcNAc(b1-2)[GlcNAc(b1-6)]Man(a1-6)[GlcNAc(b1-2)Man(a1-3)]Man(b1-4)GlcNAc(b1-4)[Fuc(a1-6)]GlcNAc
# Method in brief: as §1
# [12] = biological target: GlcNAc(b1-2)[GlcNAc(b1-6)]Man(a1-6)[GlcNAc(b1-4)][GlcNAc(b1-2)Man(a1-3)]Man(b1-4)GlcNAc(b1-4)GlcNAc
# Method in brief: as §1
# GlcNAc(b1-3)Fuc = biological target: GlcNAc(b1-3)Fuc
# Method in brief: as §1
# GlcNAc(b1-3)Gal = biological target: GlcNAc(b1-3)Gal
# Method in brief: as §1
# [13] = biological target: GlcNAc(b1-3)Gal(b1-3)GalNAc
# Method in brief: as §1
# GlcNAc(b1-3)Gal(b1-4)Glc = biological target: GlcNAc(b1-3)Gal(b1-4)Glc
# Method in brief: as §1
# [14] = biological target: GlcNAc(b1-3)Gal(b1-4)GlcNAc
# Method in brief: as §1
# [15] = biological target: GlcNAc(b1-3)Gal(b1-4)GlcNAc(b1-2)Man(a1-3)[GlcNAc(b1-3)Gal(b1-4)GlcNAc(b1-2)Man(a1-6)]Man(b1-4)GlcNAc(b1-4)GlcNAc
# Method in brief: as §1
# [16] = biological target: GlcNAc(b1-3)Gal(b1-4)GlcNAc(b1-2)Man(a1-3)[GlcNAc(b1-3)Gal(b1-4)GlcNAc(b1-2)Man(a1-6)]Man(b1-4)GlcNAc(b1-4)[Fuc(a1-6)]GlcNAc
# Method in brief: as §1
# [17] = biological target: GlcNAc(b1-3)Gal(b1-4)GlcNAc(b1-2)[GlcNAc(b1-3)Gal(b1-4)GlcNAc(b1-6)]Man(a1-6)[GlcNAc(b1-3)Gal(b1-4)GlcNAc(b1-2)Man(a1-3)]Man(b1-4)GlcNAc(b1-4)GlcNAc
# Method in brief: as §1
# [18] = biological target: GlcNAc(b1-3)Gal(b1-4)GlcNAc(b1-3)Gal(b1-4)GlcNAc
# Method in brief: as §1
# [19] = biological target: GlcNAc(b1-3)Gal(b1-4)GlcNAc(b1-3)Gal(b1-4)GlcNAc(b1-2)Man(a1-3)[GlcNAc(b1-3)Gal(b1-4)GlcNAc(b1-3)Gal(b1-4)GlcNAc(b1-2)Man(a1-6)]Man(b1-4)GlcNAc(b1-4)GlcNAc
# Method in brief: as §1
# [20] = biological target: GlcNAc(b1-3)Gal(b1-4)GlcNAc(b1-3)Gal(b1-4)GlcNAc(b1-2)Man(a1-3)[GlcNAc(b1-3)Gal(b1-4)GlcNAc(b1-3)Gal(b1-4)GlcNAc(b1-2)Man(a1-6)]Man(b1-4)GlcNAc(b1-4)[Fuc(a1-6)]GlcNAc
# Method in brief: as §1
# [21] = biological target: GlcNAc(b1-3)Gal(b1-4)GlcNAc(b1-3)Gal(b1-4)GlcNAc(b1-2)[GlcNAc(b1-3)Gal(b1-4)GlcNAc(b1-3)Gal(b1-4)GlcNAc(b1-6)]Man(a1-6)[GlcNAc(b1-3)Gal(b1-4)GlcNAc(b1-3)Gal(b1-4)GlcNAc(b1-2)Man(a1-3)]Man(b1-4)GlcNAc(b1-4)[Fuc(a1-6)]GlcNAc
# Method in brief: as §1
# [22] = biological target: GlcNAc(b1-3)Gal(b1-4)GlcNAc(b1-3)Gal(b1-4)GlcNAc(b1-3)Gal(b1-4)GlcNAc(b1-2)Man(a1-3)[GlcNAc(b1-3)Gal(b1-4)GlcNAc(b1-3)Gal(b1-4)GlcNAc(b1-3)Gal(b1-4)GlcNAc(b1-2)Man(a1-6)]Man(b1-4)GlcNAc(b1-4)GlcNAc
# Method in brief: as §1
# [23] = biological target: GlcNAc(b1-3)Gal(b1-4)GlcNAc(b1-3)Gal(b1-4)GlcNAc(b1-3)Gal(b1-4)GlcNAc(b1-2)Man(a1-3)[GlcNAc(b1-3)Gal(b1-4)GlcNAc(b1-3)Gal(b1-4)GlcNAc(b1-3)Gal(b1-4)GlcNAc(b1-2)Man(a1-6)]Man(b1-4)GlcNAc(b1-4)[Fuc(a1-6)]GlcNAc
# Method in brief: as §1
# [24] = biological target: GlcNAc(b1-3)Gal(b1-4)GlcNAc(b1-3)Gal(b1-4)GlcNAc(b1-3)Gal(b1-4)GlcNAc(b1-2)[GlcNAc(b1-3)Gal(b1-4)GlcNAc(b1-3)Gal(b1-4)GlcNAc(b1-3)Gal(b1-4)GlcNAc(b1-6)]Man(a1-6)[GlcNAc(b1-3)Gal(b1-4)GlcNAc(b1-3)Gal(b1-4)GlcNAc(b1-3)Gal(b1-4)GlcNAc(b1-2)Man(a1-3)]Man(b1-4)GlcNAc(b1-4)[Fuc(a1-6)]GlcNAc
# Method in brief: as §1
# [25] = biological target: GlcNAc(b1-3)Gal(b1-4)GlcNAc(b1-3)Gal(b1-4)GlcNAc(b1-3)Gal(b1-4)GlcNAc(b1-3)Gal(b1-4)GlcNAc(b1-2)Man(a1-3)[GlcNAc(b1-3)Gal(b1-4)GlcNAc(b1-3)Gal(b1-4)GlcNAc(b1-3)Gal(b1-4)GlcNAc(b1-3)Gal(b1-4)GlcNAc(b1-2)Man(a1-6)]Man(b1-4)GlcNAc(b1-4)GlcNAc
# Method in brief: as §1
# [26] = biological target: GlcNAc(b1-3)Gal(b1-4)GlcNAc(b1-3)Gal(b1-4)GlcNAc(b1-3)Gal(b1-4)GlcNAc(b1-3)Gal(b1-4)GlcNAc(b1-2)Man(a1-3)[GlcNAc(b1-3)Gal(b1-4)GlcNAc(b1-3)Gal(b1-4)GlcNAc(b1-3)Gal(b1-4)GlcNAc(b1-3)Gal(b1-4)GlcNAc(b1-2)Man(a1-6)]Man(b1-4)GlcNAc(b1-4)[Fuc(a1-6)]GlcNAc
# Method in brief: as §1
# [27] = biological target: GlcNAc(b1-3)Gal(b1-4)GlcNAc(b1-3)Gal(b1-4)GlcNAc(b1-3)Gal(b1-4)GlcNAc(b1-3)Gal(b1-4)GlcNAc(b1-2)[GlcNAc(b1-3)Gal(b1-4)GlcNAc(b1-3)Gal(b1-4)GlcNAc(b1-3)Gal(b1-4)GlcNAc(b1-3)Gal(b1-4)GlcNAc(b1-6)]Man(a1-6)[GlcNAc(b1-3)Gal(b1-4)GlcNAc(b1-3)Gal(b1-4)GlcNAc(b1-3)Gal(b1-4)GlcNAc(b1-3)Gal(b1-4)GlcNAc(b1-2)Man(a1-3)]Man(b1-4)GlcNAc(b1-4)[Fuc(a1-6)]GlcNAc
# Method in brief: as §1
# [28] = biological target: GlcNAc(b1-3)Gal(b1-4)GlcNAc(b1-3)Gal(b1-4)GlcNAc(b1-3)GalNAc
# Method in brief: as §1
# [29] = biological target: GlcNAc(b1-3)Gal(b1-4)GlcNAc(b1-3)GalNAc
# Method in brief: as §1
# [30] = biological target: GlcNAc(b1-3)Gal(b1-4)GlcNAc(b1-3)[GlcNAc(b1-3)Gal(b1-4)GlcNAc(b1-3)]GalNAc
# Method in brief: as §1
# [31] = biological target: GlcNAc(b1-3)Gal(b1-4)GlcNAc(b1-6)[Gal(b1-3)]GalNAc
# Method in brief: as §1
# [32] = biological target: GlcNAc(b1-3)Gal(b1-4)GlcNAc(b1-6)[GlcNAc(b1-3)Gal(b1-3)]GalNAc
# Method in brief: as §1
# [33] = biological target: GlcNAc(b1-3)Gal(b1-4)GlcNAc(b1-6)[GlcNAc(b1-3)]Gal(b1-4)GlcNAc
# Method in brief: as §1
# GlcNAc(b1-3)GalNAc = biological target: GlcNAc(b1-3)GalNAc
# Method in brief: as §1
# GlcNAc(b1-3)Man = biological target: GlcNAc(b1-3)Man
# Method in brief: as §1
# [34] = biological target: GlcNAc(b1-3)[GlcNAc(b1-4)][GlcNAc(b1-6)]GlcNAc
# Method in brief: as §1
# [35] = biological target: GlcNAc(b1-3)[GlcNAc(b1-6)]Gal(b1-4)GlcNAc
# Method in brief: as §1
# [36] = biological target: GlcNAc(b1-3)[GlcNAc(b1-6)]GalNAc
# Method in brief: as §1
# [37] = biological target: GlcNAc(b1-4)Gal(b1-4)GlcNAc
# Method in brief: as §1
# GlcNAc(b1-4)GlcNAc = biological target: GlcNAc(b1-4)GlcNAc
# Method in brief: as §1
# [38] = biological target: GlcNAc(b1-4)GlcNAc(b1-4)GlcNAc
# Method in brief: as §1
# [39] = biological target: GlcNAc(b1-4)GlcNAc(b1-4)GlcNAc(b1-4)GlcNAc(b1-4)GlcNAc
# Method in brief: as §1
binder,measurement,setting,value
EUL D1A second (Oryza sativa) (protein) GAATACTIGGVPVHTVRVFSAAGEDYCLTVRNGTACLAPKNPRDDYQHWIKDMRHSNKIRDEEGYPAFALVNKVTGEAIKHSTGQGHPVKLVPYNPEYQDESVLWTESKDVGKGFRCIRMVNNIYLNFDAFHGDKDHGGIHDGTEIVLWKWCEGDNQRWKILPWILEQKLISEEDLNSAVDHHHHHH,glycan array binding signal (z-score),[1],-0.221
same,glycan array binding signal (z-score),[2],-0.578
same,glycan array binding signal (z-score),[3],-0.631
same,glycan array binding signal (z-score),[4],0.9
same,glycan array binding signal (z-score),[5],-0.831
same,glycan array binding signal (z-score),[6],1
same,glycan array binding signal (z-score),[7],-0.669
same,glycan array binding signal (z-score),[8],0.522
same,glycan array binding signal (z-score),[9],-0.431
same,glycan array binding signal (z-score),[10],0.179
same,glycan array binding signal (z-score),[11],-0.879
same,glycan array binding signal (z-score),[12],-0.303
same,glycan array binding signal (z-score),GlcNAc(b1-3)Fuc,0.458
same,glycan array binding signal (z-score),GlcNAc(b1-3)Gal,-0.812
same,glycan array binding signal (z-score),[13],0.185
same,glycan array binding signal (z-score),GlcNAc(b1-3)Gal(b1-4)Glc,-0.312
same,glycan array binding signal (z-score),[14],-0.23
same,glycan array binding signal (z-score),[15],-0.922
same,glycan array binding signal (z-score),[16],0.492
same,glycan array binding signal (z-score),[17],0.98
same,glycan array binding signal (z-score),[18],0.92
same,glycan array binding signal (z-score),[19],0.61
same,glycan array binding signal (z-score),[20],1.05
same,glycan array binding signal (z-score),[21],1.27
same,glycan array binding signal (z-score),[22],0.539
same,glycan array binding signal (z-score),[23],1.65
same,glycan array binding signal (z-score),[24],0.63
same,glycan array binding signal (z-score),[25],0.254
same,glycan array binding signal (z-score),[26],0.38
same,glycan array binding signal (z-score),[27],1.29
same,glycan array binding signal (z-score),[28],1.22
same,glycan array binding signal (z-score),[29],0.388
same,glycan array binding signal (z-score),[30],1.31
same,glycan array binding signal (z-score),[31],0.183
same,glycan array binding signal (z-score),[32],-0.666
same,glycan array binding signal (z-score),[33],-0.554
same,glycan array binding signal (z-score),GlcNAc(b1-3)GalNAc,-1.32
same,glycan array binding signal (z-score),GlcNAc(b1-3)Man,0.35
same,glycan array binding signal (z-score),[34],-0.48
same,glycan array binding signal (z-score),[35],-0.302
same,glycan array binding signal (z-score),[36],-0.106
same,glycan array binding signal (z-score),[37],-0.637
same,glycan array binding signal (z-score),GlcNAc(b1-4)GlcNAc,-0.613
same,glycan array binding signal (z-score),[38],1.64
same,glycan array binding signal (z-score),[39],-1.07

# Reprinted at random: two records from the list, in no set order.
binder,measurement,setting,value
EUL D1A second (Oryza sativa) (protein) GAATACTIGGVPVHTVRVFSAAGEDYCLTVRNGTACLAPKNPRDDYQHWIKDMRHSNKIRDEEGYPAFALVNKVTGEAIKHSTGQGHPVKLVPYNPEYQDESVLWTESKDVGKGFRCIRMVNNIYLNFDAFHGDKDHGGIHDGTEIVLWKWCEGDNQRWKILPWILEQKLISEEDLNSAVDHHHHHH,glycan array binding signal (z-score),[36],-0.106
same,glycan array binding signal (z-score),[21],1.27
